No constants are given. Whether binding was seen depends on the method and setting. Binding seen in cells or lysates may run through a third protein. Some entries that bind do so weakly or less than the wild type.
Columns and labels:
[1] = target: FLAG-His6-tagged importin α5 (human) (UniProt P52294); experiment: co-IP; HEK293FT cells transfected with pCIneoFH-importin α5 and pCIneoGFP-TAZ, treated with DMSO or 10 μM TI-4 for 48 h, with control siRNA or CSE1L siRNA beforehand; immunoprecipitation with anti-DYKDDDDK beads
[2] = target: endogenous TAZ (human (endogenous in HEK293FT)) (UniProt Q9GZV5); experiment: co-IP; endogenous proteins; HEK293FT cells transfected with CSE1L siRNA, lysed 72 h later; supernatant incubated with rabbit control IgG or TAZ polyclonal antibody, then Protein G Sepharose; lysis buffer 25 mM Tris-HCl pH 7.4, 150 mM NaCl, 1% Triton X-100

The chains behind the UniProt entries cited, without tags or fusion partners.
UniProt P52294: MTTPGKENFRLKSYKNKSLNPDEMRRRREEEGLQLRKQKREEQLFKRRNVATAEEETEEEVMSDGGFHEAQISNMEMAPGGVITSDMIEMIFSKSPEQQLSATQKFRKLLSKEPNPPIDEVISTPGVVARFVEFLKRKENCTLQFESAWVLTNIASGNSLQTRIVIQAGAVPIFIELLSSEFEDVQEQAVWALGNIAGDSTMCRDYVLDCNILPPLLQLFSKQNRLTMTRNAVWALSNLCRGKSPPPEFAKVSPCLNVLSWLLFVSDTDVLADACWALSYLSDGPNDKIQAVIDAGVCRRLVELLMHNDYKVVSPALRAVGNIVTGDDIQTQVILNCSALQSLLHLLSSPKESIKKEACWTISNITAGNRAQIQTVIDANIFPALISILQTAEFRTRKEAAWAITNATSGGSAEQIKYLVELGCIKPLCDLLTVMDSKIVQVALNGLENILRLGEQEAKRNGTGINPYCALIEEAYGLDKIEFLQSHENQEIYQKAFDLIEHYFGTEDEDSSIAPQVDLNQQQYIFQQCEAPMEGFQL
UniProt Q9GZV5: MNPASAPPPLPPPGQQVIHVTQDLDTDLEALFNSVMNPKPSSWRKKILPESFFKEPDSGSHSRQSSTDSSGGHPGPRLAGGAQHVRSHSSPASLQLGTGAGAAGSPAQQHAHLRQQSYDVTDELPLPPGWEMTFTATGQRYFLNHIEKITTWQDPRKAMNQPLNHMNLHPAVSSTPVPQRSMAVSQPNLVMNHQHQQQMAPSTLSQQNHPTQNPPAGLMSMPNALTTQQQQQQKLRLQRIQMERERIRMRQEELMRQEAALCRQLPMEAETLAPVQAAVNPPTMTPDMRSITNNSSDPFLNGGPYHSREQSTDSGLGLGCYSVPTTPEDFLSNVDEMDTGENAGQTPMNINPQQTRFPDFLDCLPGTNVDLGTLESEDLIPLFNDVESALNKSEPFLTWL

| Substance | binding [1] | binding [2] |
| --- | --- | --- |
| GFP-tagged TAZ (transcriptional coactivator with PDZ-binding motif) (from UniProt Q9GZV5 1-400) | binds |  |
| endogenous importin α5 (from UniProt P52294 1-538) |  | binds |

From article PMC8209642
